# Reference: paper PMC7819943, “Rice protein-binding microarrays: a tool to detect cis-acting elements near promoter regions in rice”
# This is one part of the list.
# Target: T1, OsSMF1 (Oryza sativa, UniProt Q6ZLB0 1-436)
# T1 sequence: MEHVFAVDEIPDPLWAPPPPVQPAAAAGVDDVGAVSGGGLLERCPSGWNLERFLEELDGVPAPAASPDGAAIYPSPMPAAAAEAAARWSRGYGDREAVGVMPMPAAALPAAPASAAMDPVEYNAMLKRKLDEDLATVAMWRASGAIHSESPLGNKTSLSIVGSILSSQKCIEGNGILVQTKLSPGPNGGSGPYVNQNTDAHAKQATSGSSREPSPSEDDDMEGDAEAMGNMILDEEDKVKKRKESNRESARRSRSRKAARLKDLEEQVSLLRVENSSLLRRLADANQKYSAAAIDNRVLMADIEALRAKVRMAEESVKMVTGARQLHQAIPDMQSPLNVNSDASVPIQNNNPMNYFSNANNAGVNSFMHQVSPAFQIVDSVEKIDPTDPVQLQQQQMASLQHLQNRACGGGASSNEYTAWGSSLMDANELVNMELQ
# Assay: protein-binding microarray (RPBM); PBS, 2% BSA, 51.3 ng/ul salmon testes DNA, 50 uM zinc acetate, 200 nM TF, 25 C, 1 h; high values mean tight binding
# Conditions: protein: recombinant; tags: N-terminal polyhistidine and DsRed monomer fusion (pET32a); chain copies: 2; label: CyDye5-dUTP incorporated in the synthesized complementary strand; 3' TTTTT single-stranded linker to array surface; dsDNA, one strand shown
# How it was run: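 Transcription factors, each fused N-terminally to a polyhistidine tag and DsRed, were expressed in E. coli BL21-CodonPlus and purified on Ni–NTA. A custom Agilent array was made double-stranded by primer extension with Cy5-dUTP and blocked with 2% BSA. It was incubated with 200 nM protein in PBS, 2% BSA, salmon testes DNA and 50 µM zinc acetate at 25 °C for 1 h, then washed. The binding signal is per-feature fluorescence intensity (arbitrary units) read on an Axon 4000B scanner.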
row,Sequence,binding signal
1,ACTTTATGGCTAAATCCCGGGCGTGACTGCGTGGAGCATCCGGAGTCACCTAGTGCAG,3870 fluorescence intensity (a.u.)
2,AGCCTGCCTCTCCCGGTGCCACGCAGCCTCGGAACCCACACGGAGTCACCTAGTGCAG,3540 fluorescence intensity (a.u.)
3,AACCCTCCCCTCCCGTGGATCATCGCCGCCGCCGCCGGTACGGAGTCACCTAGTGCAG,3230 fluorescence intensity (a.u.)
4,GCTCTCTCTTCTCAACTATGAACCCTATTCCACGAAAGCACGGAGTCACCTAGTGCAG,3430 fluorescence intensity (a.u.)
5,CTAGCCGCCCGCGCCGCCACCTCGCCGGCCTCTAGCCGCCCGGAGTCACCTAGTGCAG,3700 fluorescence intensity (a.u.)
6,CCTCGCAACAAAACCGGAGCCACTCGAGCGAGTGAAAACGCGGAGTCACCTAGTGCAG,4920 fluorescence intensity (a.u.)
7,CATCAAACAACCAGTTTCTTAGGATGTCTTTTAACCGTGACGGAGTCACCTAGTGCAG,23200 fluorescence intensity (a.u.)
8,TACCGTCCCTCAACTTTATGTCGAGTCTATATGACATACCCGGAGTCACCTAGTGCAG,4220 fluorescence intensity (a.u.)
9,CCCCGCCGCCGTCCATCGCCGCCGCCGCGTCACTCTTGCACGGAGTCACCTAGTGCAG,10400 fluorescence intensity (a.u.)
10,TCCATCCCAAAGCTCCACTCCACGTACGCCTCGGGATTTGCGGAGTCACCTAGTGCAG,4680 fluorescence intensity (a.u.)
11,GCACGCTCAATTACCATACACATCAGCTAACAAGTAATAACGGAGTCACCTAGTGCAG,3140 fluorescence intensity (a.u.)
12,ATTTATTGGTGCTGACCATCTAGAGTGAGTTGATGCCTTGCGGAGTCACCTAGTGCAG,3670 fluorescence intensity (a.u.)
13,GTGGGTGTATAGACCAAGCTCACGTGGCCGCCTCGAGCGTCGGAGTCACCTAGTGCAG,5100 fluorescence intensity (a.u.)
14,CCGCACGAAGCCACGTACACAATTGCGTGACGGAACCCAACGGAGTCACCTAGTGCAG,6320 fluorescence intensity (a.u.)
15,GCTCATTTATTGCCGGTTGGTACGCATCACTTGAGCGTTTCGGAGTCACCTAGTGCAG,3860 fluorescence intensity (a.u.)
16,AATTATTTGTTTATTCCTTATGACTAGATAGTAAACATATCGGAGTCACCTAGTGCAG,4290 fluorescence intensity (a.u.)
17,TTCTTCCCCGAGCAGCCAGCGCTGCCGTCACTGCTCTGCTCGGAGTCACCTAGTGCAG,3460 fluorescence intensity (a.u.)
18,CCATGCCACATACGGATCTATGTAAGGGTCATTGTCTTCCCGGAGTCACCTAGTGCAG,3460 fluorescence intensity (a.u.)
19,CGTCGCCTCGCCTCGTCACGGCCGCCTCCGCCATCGCCTCCGGAGTCACCTAGTGCAG,6060 fluorescence intensity (a.u.)
20,GGCCCCTGCGCTTGCGTAGGTGAAGCCTGCCCTGTGTAAGCGGAGTCACCTAGTGCAG,3210 fluorescence intensity (a.u.)
21,ACACCCAACCCGATCCACATCATCCCCAAACCTCCCTTCCCGGAGTCACCTAGTGCAG,6200 fluorescence intensity (a.u.)

row,Sequence,binding signal
1,AAGTTTTGCACATACTTTTCTATAATTATGTCATCACATCCGGAGTCACCTAGTGCAG,4210 fluorescence intensity (a.u.)
2,TGGGTGATTGATTAGTACTACTGCTGCATCTGCACTGCATCGGAGTCACCTAGTGCAG,18800 fluorescence intensity (a.u.)
3,TAGTCGATGGGCTGGATGTGGGACTGAGCGTTGGGCCGGGCGGAGTCACCTAGTGCAG,3760 fluorescence intensity (a.u.)
4,AAGAAGCTAGCCACGTAAGATAATCCGCGCAATAAGTCAGCGGAGTCACCTAGTGCAG,10000 fluorescence intensity (a.u.)
5,TGTGGAATTGGTGAAGAACCTAGTCAGTAGTCACCATCGACGGAGTCACCTAGTGCAG,3770 fluorescence intensity (a.u.)
6,CCCTCCACCTCACTCGCCCACGTGGCGGGACGCATCTGGCCGGAGTCACCTAGTGCAG,13600 fluorescence intensity (a.u.)
7,GCCTCGTCGTAGTCAACACCTTGACGCGTCGGACAAATCACGGAGTCACCTAGTGCAG,4250 fluorescence intensity (a.u.)
8,TCGGATGAGTGGCTTATAGATTTGAATTTGATGGTCTGCTCGGAGTCACCTAGTGCAG,3490 fluorescence intensity (a.u.)
9,CGATCATGCCGTGACGTACGCTTTGAAACTCGCAGCTAGCCGGAGTCACCTAGTGCAG,5040 fluorescence intensity (a.u.)
10,TGTCCGTCACGAAATCTCCAATCGCGTCATCAGCTATACCCGGAGTCACCTAGTGCAG,11100 fluorescence intensity (a.u.)
11,GGTCAAATCCCACACACACGCCGTAGGATCCAGTCAATGGCGGAGTCACCTAGTGCAG,3200 fluorescence intensity (a.u.)
12,AAGAGGTGGAGTTGAGTTTAAACGGCTACACAACTCCACTCGGAGTCACCTAGTGCAG,3210 fluorescence intensity (a.u.)
13,CGGTGGGATTGGTTTAACGTGGGTGCTAATGGGGAAGCTACGGAGTCACCTAGTGCAG,4620 fluorescence intensity (a.u.)
14,GATCATCGTCCTATTTGGCTTTCGGCGGCCAGCCCGCCTCCGGAGTCACCTAGTGCAG,3620 fluorescence intensity (a.u.)
15,TTCTCCAGCATCGTATACGTGTCTAATTGTGATTTTATATCGGAGTCACCTAGTGCAG,3810 fluorescence intensity (a.u.)
16,CAAAGGAACACATCTGGGTCATCAGACAACTCAATAGAGTCGGAGTCACCTAGTGCAG,43000 fluorescence intensity (a.u.)
17,ACACATGGAACTTGTGCCATATATCTGTAGGTGTGAAAATCGGAGTCACCTAGTGCAG,41300 fluorescence intensity (a.u.)
18,GGTGCGTGTTCGGGATGGGGTTCGGGTTCAATTTCAGGTTCGGAGTCACCTAGTGCAG,3540 fluorescence intensity (a.u.)
19,GCCTCGAACGACGTGTGGACGCGATGGAAGATGCGTTCTGCGGAGTCACCTAGTGCAG,3210 fluorescence intensity (a.u.)
20,AAAGCGTTCCGCGGCGCCGCCGTGGCGTCCGGCGTCCGGCCGGAGTCACCTAGTGCAG,3900 fluorescence intensity (a.u.)
21,GTGTACACCTCCCTCAATATAAACTTAGATACCCACGTCACGGAGTCACCTAGTGCAG,4410 fluorescence intensity (a.u.)

# A few values from the list:
# Under binding signal, TTCTCCAGCATCGTATACGTGTCTAATTGTGATTTTATATCGGAGTCACCTAGTGCAG shows 3810 fluorescence intensity (a.u.)
# Under binding signal, CCCCGCCGCCGTCCATCGCCGCCGCCGCGTCACTCTTGCACGGAGTCACCTAGTGCAG shows 10400 fluorescence intensity (a.u.)
